Patent publication US7893220B2, “Busulfan immunoassay” (Saladax Biomedical Inc., priority 2004, dated 2011)
Some entries share one result that the patent states for a list of compounds.

Assays:
[1] = system: busulfan antibodies (antisera of example 7); assay: Indirect competitive microtiter plate immunoassay (ELISA), busulfan derivative 7-BSA sensitized plates; type: binding, mouse; settings: antibody of example 7 with immunogen of examples 3 & 4; derivative 7-BSA plates
Experimental: (§1) Ten Female BALB/c mice were immunized i.p. with 100 μg/mouse of Busulfan-BTG immunogen prepared in example 3 or with Busulfan-KLH immunogen prepared in example 4, emulsified in Complete Freund's Adjuvant. Mice were boosted once four weeks after the initial injection with 100 μg/mouse of the same immunogens emulsified in Incomplete Freund's Adjuvant. Ten or 28 days after the boost test bleeds from each mouse were obtained by orbital bleed. The anti-serum from these test bleeds contained Busulfan antibodies evaluated in Examples 9 , 10a and 10b. […]
(§2) The ELISA method for screening busulfan antibodies (produced in example 7) was performed with the microtiter plates that were sensitized with busulfan-BSA as described in examples 8a and 8b. […] Following the incubation for color development, 50 μL of stop solution (1.5% sodium fluoride in di H2O) was added to each well to stop the color development and after 10 seconds of shaking the absorbance was determined at 650 nm (Molecular Devices Plate Reader). The amount of antibody in a well was proportional to the absorbance measured and was expressed as the dilution (titer) resulting in an absorbance of 1.5. Titers were determined by graphing Log antibody dilution of the antibody measured (x-axis) vs. absorbance 650 nm (y-axis) and extrapolating the titer at an absorbance of 1.5. […]

[2] = system: busulfan antibodies (antisera of example 7); assay: Indirect competitive microtiter plate immunoassay (ELISA), busulfan derivative 11-BSA sensitized plates; type: binding, mouse; settings: antibody of example 7 with immunogen of examples 3 & 4; derivative 11-BSA plates
Experimental: as §1, §2

O=S1(=O)CCCC1 [Tetramethylene sulfone, tetramethylene sulfone]
percent cross-reactivity relative to busulfan [1]: less than 5% | percent cross-reactivity relative to busulfan [2]: less than 5%

O=S1(=O)CCC(O)C1 (stereo not shown) [Tetrahydrothiophene-3-ol-1,1-dioxide, tetrahydrothiophene-3-ol-1,1-dioxide]
percent cross-reactivity relative to busulfan [1]: less than 5% | percent cross-reactivity relative to busulfan [2]: less than 5%
